Data published in the supplement of paper PMC10849652.
This is one part of the list.

Protein sequences, listed by entry. Tags and fused reporters are not part of them. Lines headed by an entry give the natural chain unless they say otherwise; changes in a name come on top.
UniProt Q8TCU4: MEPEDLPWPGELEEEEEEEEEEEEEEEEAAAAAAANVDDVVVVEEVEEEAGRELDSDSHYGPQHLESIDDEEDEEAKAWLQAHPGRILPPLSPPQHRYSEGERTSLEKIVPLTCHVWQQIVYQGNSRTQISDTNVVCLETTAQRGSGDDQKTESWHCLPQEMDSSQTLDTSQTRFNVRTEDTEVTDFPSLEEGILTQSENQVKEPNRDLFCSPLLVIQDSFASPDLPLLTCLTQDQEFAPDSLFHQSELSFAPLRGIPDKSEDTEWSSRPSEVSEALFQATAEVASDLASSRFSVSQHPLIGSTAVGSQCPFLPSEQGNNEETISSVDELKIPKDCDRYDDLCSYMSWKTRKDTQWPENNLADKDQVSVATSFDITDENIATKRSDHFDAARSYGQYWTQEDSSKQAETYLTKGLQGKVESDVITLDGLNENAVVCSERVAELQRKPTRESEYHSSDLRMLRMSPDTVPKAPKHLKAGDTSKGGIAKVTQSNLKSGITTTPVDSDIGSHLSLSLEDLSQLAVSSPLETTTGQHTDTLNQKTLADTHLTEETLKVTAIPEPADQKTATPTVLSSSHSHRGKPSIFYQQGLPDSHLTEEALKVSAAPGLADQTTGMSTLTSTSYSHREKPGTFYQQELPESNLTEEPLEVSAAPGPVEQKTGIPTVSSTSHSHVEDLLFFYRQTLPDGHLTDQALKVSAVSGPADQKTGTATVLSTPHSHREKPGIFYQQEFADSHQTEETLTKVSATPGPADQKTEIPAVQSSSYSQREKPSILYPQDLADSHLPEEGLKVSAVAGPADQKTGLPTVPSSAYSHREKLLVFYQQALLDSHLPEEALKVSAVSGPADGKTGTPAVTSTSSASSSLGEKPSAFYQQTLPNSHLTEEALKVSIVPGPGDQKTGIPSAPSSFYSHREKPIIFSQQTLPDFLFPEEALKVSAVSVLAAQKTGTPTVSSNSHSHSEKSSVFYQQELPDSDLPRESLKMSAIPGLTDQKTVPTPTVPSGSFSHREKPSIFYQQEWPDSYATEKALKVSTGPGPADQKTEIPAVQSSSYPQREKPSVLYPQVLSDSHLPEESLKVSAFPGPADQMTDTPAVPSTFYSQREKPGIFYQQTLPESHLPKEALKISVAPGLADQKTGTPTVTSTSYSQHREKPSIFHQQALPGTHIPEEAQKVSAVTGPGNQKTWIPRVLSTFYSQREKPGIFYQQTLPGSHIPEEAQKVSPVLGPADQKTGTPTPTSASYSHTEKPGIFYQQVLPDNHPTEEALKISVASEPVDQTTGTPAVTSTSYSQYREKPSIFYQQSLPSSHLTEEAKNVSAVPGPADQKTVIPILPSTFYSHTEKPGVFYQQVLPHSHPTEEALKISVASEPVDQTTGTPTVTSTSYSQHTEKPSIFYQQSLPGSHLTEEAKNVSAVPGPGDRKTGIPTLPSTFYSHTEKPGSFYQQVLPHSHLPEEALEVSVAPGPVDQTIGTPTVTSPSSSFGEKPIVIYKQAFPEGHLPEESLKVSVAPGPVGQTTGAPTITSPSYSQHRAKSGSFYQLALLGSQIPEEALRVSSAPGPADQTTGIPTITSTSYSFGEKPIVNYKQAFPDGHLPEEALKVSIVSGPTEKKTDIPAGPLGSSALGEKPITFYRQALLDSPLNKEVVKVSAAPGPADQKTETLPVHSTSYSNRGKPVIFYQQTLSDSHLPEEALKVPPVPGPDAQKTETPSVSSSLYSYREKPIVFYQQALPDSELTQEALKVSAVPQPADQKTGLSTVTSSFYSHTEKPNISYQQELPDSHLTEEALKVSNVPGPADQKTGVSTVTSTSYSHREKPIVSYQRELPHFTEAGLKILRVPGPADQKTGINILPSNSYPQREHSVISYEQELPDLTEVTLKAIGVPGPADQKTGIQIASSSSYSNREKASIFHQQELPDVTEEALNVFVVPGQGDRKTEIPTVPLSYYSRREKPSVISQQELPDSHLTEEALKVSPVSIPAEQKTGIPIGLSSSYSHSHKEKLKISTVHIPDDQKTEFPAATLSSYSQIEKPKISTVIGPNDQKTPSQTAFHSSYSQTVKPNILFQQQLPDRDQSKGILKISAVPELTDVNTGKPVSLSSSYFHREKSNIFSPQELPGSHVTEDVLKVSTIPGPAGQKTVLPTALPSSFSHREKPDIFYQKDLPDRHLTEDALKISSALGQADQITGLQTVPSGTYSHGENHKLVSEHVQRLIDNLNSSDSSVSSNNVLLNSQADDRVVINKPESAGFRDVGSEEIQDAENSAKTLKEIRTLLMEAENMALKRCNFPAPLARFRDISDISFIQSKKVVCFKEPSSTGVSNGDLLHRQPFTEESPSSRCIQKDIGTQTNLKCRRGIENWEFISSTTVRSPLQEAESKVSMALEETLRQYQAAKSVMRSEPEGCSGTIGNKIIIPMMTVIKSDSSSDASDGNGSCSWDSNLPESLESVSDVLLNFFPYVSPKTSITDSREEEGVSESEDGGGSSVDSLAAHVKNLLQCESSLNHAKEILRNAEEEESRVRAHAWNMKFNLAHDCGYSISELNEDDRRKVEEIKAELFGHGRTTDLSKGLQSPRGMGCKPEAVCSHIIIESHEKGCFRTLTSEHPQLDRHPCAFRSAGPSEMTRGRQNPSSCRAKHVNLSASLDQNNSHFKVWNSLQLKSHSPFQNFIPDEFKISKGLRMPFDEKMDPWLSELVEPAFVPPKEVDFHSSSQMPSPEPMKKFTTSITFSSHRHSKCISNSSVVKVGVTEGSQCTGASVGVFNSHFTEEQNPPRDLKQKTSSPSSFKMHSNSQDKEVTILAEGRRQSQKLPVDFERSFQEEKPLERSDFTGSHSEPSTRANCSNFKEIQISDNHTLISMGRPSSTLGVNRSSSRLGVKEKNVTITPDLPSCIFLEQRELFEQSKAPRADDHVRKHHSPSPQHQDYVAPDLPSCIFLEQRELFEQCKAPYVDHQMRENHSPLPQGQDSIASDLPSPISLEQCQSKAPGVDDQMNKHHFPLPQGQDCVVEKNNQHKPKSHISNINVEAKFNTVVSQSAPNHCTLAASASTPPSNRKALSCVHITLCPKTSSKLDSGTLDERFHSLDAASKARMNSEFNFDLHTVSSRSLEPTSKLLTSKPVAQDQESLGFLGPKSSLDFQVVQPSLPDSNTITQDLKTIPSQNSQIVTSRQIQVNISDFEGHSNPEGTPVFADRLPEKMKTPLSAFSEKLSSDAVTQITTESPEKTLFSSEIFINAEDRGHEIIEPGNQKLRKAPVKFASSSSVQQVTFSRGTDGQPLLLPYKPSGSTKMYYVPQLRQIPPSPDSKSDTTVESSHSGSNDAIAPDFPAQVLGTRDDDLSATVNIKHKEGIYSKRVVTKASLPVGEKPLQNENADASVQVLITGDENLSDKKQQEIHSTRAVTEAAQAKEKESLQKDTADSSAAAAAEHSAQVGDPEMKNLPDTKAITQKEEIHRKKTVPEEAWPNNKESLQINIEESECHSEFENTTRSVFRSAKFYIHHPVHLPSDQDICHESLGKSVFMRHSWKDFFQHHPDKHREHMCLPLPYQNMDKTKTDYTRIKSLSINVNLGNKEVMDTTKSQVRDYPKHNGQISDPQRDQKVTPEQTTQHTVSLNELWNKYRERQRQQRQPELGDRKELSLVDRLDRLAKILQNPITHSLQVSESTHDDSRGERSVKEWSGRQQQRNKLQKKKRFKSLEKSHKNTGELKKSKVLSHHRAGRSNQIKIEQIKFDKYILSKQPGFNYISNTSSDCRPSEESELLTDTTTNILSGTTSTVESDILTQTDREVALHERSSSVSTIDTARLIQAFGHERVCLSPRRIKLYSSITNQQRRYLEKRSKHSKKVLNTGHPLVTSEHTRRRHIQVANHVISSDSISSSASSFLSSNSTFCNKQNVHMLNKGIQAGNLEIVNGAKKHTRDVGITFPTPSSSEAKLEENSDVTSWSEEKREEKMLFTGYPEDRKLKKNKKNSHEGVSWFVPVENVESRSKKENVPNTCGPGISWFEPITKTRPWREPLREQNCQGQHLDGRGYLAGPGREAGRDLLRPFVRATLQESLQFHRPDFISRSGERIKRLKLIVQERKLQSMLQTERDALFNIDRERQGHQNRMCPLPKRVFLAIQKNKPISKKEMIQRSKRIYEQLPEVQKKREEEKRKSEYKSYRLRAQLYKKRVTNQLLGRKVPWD
UniProt P56377: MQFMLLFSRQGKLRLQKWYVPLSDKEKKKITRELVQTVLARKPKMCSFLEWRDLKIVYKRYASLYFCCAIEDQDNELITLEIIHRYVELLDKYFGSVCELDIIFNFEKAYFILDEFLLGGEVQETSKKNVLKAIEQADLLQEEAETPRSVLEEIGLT
UniProt P39687: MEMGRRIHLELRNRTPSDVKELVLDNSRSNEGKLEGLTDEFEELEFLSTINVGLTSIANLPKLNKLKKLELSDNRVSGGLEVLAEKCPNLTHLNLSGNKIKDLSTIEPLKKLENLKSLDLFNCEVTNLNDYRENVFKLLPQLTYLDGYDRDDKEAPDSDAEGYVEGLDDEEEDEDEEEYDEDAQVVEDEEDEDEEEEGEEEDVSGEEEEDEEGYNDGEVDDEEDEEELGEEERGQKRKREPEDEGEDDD
UniProt Q86XL3: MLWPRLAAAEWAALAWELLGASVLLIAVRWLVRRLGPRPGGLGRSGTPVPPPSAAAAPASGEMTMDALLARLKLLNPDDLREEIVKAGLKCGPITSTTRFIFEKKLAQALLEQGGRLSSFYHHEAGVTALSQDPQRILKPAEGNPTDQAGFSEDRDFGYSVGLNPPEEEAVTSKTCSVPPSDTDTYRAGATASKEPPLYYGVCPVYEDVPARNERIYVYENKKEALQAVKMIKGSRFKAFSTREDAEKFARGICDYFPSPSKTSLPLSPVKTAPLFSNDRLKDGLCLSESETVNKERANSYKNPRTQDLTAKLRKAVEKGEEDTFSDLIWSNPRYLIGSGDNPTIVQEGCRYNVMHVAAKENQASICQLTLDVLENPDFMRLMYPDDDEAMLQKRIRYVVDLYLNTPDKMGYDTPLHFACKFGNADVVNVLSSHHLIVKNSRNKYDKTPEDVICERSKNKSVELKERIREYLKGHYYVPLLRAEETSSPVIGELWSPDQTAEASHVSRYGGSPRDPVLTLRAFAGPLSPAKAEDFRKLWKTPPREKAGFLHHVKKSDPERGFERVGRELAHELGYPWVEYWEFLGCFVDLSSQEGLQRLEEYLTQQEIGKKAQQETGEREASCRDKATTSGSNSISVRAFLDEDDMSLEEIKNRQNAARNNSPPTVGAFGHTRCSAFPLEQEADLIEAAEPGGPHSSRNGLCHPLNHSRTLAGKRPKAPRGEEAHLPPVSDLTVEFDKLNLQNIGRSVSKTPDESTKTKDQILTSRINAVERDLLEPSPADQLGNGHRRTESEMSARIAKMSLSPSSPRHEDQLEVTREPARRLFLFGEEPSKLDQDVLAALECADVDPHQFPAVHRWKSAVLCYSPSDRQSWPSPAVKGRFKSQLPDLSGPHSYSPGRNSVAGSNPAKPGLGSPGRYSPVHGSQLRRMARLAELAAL
UniProt O15084: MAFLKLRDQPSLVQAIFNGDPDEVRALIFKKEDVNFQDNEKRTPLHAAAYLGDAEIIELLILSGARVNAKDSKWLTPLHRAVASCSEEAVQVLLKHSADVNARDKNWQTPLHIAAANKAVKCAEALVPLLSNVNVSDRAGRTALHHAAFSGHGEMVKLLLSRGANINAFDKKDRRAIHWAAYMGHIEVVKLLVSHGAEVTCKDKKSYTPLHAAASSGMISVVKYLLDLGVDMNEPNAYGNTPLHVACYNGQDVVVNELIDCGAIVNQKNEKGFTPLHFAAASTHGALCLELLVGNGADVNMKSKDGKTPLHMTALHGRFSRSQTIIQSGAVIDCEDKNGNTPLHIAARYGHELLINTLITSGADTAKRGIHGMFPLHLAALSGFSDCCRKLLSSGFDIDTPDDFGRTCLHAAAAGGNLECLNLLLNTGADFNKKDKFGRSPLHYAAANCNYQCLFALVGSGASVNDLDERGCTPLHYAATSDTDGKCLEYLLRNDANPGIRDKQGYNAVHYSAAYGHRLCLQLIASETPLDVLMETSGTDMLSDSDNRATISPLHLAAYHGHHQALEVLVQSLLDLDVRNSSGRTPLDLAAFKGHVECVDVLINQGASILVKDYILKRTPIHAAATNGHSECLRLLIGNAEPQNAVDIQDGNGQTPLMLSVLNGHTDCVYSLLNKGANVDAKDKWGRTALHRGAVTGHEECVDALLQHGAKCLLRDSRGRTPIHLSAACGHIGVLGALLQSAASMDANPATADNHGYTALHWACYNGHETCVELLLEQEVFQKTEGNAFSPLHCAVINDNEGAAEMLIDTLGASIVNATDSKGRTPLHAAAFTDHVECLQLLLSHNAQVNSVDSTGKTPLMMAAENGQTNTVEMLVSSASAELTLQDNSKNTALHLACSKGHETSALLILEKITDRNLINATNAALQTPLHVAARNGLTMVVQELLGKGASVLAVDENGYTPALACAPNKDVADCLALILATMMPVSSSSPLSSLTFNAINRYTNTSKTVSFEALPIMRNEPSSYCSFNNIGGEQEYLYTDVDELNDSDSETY

Experiments:
Assay in all cases: log2 fold change, soluble protein after heating vs DMSO (PISA); higher = thermal stabilisation; K562 lysate, 10 uM; active = over 0.2 and 3.5 SD of the protein, either way, in both replicates (recomputed)
[1] = compound: NCC(=O)Nc1ccc(-n2nc(C(F)(F)F)cc2-c2ccc3c(ccc4ccccc43)c2)cc1
Procedure, shortened: (§1)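 Pellets of K562 cells were dounce-homogenised in PBS pH 7.4 with 1 mM MgCl2, and the crude extract was held at 1 mg/mL protein for a 30 min treatment with 10 μM compound. Aliquots were heated for 3 min over 48°C-58°C and pooled before NP-40 was added to 0.5% at 4°C. The supernatant from 21,000xg for 90 min was quantified by TMTpro 16plex LC-MS/MS with channel sums equalised. Values are reported from duplicates as log-two fold change in thermal stability relative to solvent controls.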

vorinostat = compound: O=C(CCCCCCC(=O)Nc1ccccc1)NO [vorinostat]
Procedure, shortened: as §1

silmitasertib = compound: O=C(O)c1ccc2c(c1)nc(Nc1cccc(Cl)c1)c1ccncc12 [silmitasertib]
Procedure, shortened: as §1

[2] = compound: O=C1NC(=O)C(c2cnc3ccccn23)=C1c1cn2c3c(cc(F)cc13)CN(C(=O)N1CCCCC1)CC2
Procedure, shortened: as §1

entospletinib = compound: c1cn2cc(-c3ccc4cn[nH]c4c3)nc(Nc3ccc(N4CCOCC4)cc3)c2n1 [entospletinib]
Procedure, shortened: as §1

| Target | log2 fold change [1] | log2 fold change (vorinostat) | log2 fold change (silmitasertib) | log2 fold change [2] | log2 fold change (entospletinib) |
| --- | --- | --- | --- | --- | --- |
| ALMS1 (UniProt Q8TCU4) | inactive: 0.046 | inactive: -0.034 | inactive: 0.021 | inactive: 0.146 | inactive: -0.016 |
| ALDH2 (UniProt P05091) | inactive: -0.068 | active: 0.627 | inactive: 0.009 | inactive: 0.019 | inactive: -0.009 |
| ANP32E (UniProt Q9BTT0) | inactive: 0.021 | inactive: 0.217 | inactive: -0.029 | inactive: -0.011 | inactive: 0.012 |
| AMFR (UniProt Q9UKV5) | inactive: -0.01 | inactive: 0.21 | inactive: 0.058 | inactive: 0.001 | inactive: -0.025 |
| ANKRD29 (UniProt Q8N6D5) | inactive: 0.261 | inactive: 0.051 | inactive: 0.029 | inactive: 0.172 | inactive: 0.012 |
| AP1S2 isoform 2 (UniProt P56377) | inactive: -0.04 | inactive: 0.021 | inactive: 0.065 | inactive: -0.101 | inactive: -0.006 |
| ANP32A (UniProt P39687) | inactive: -0.005 | inactive: 0.08 | inactive: 0.063 | inactive: -0.027 | inactive: 0.026 |
| ANKH (UniProt Q9HCJ1) | inactive: -0.063 | inactive: 0.082 | inactive: -0.007 | inactive: 0.013 | inactive: -0.21 |
| ANKRD30B (UniProt Q9BXX2) | inactive: 0.228 | inactive: 0.147 | inactive: 0.047 |  | inactive: 0.025 |
| AMBRA1 isoform 5 (UniProt Q9C0C7) | inactive: 0.062 | inactive: -0.088 | inactive: 0.108 | inactive: -0.032 | inactive: 0 |
| ANKRD49 (UniProt Q8WVL7) | inactive: -0.015 | inactive: 0.093 | inactive: -0.049 | inactive: -0.011 | inactive: 0.023 |
| AP1AR (UniProt Q63HQ0) | inactive: 0.013 | inactive: -0.018 | inactive: 0.086 | inactive: -0.011 | inactive: -0.036 |
| ALDH18A1 (UniProt P54886) | inactive: 0.023 | active: -0.401 | inactive: 0.023 | inactive: -0.015 | inactive: 0.022 |
| ANAPC10 (UniProt Q9UM13) | inactive: -0.009 | inactive: -0.232 | inactive: -0.086 | inactive: -0.007 | inactive: 0.011 |
| ANKZF1 (UniProt Q9H8Y5) | inactive: -0.022 | inactive: -0.037 | inactive: 0.008 | inactive: 0.002 | inactive: -0.013 |
| ANXA3 (UniProt P12429) | inactive: -0.004 | inactive: 0.002 | inactive: -0.003 | inactive: -0.035 | inactive: 0.042 |
| ALKBH6 isoform 2 (UniProt Q3KRA9) | inactive: 0.007 | inactive: -0.087 | inactive: -0.024 | inactive: 0.006 | inactive: 0.031 |
| ALDOC (UniProt P09972) | inactive: 0.012 | inactive: 0.11 | inactive: 0.004 | inactive: -0.01 | inactive: 0.064 |
| AMPD2 (UniProt Q01433) | inactive: -0.014 | inactive: 0.052 | inactive: 0 | inactive: -0.01 | inactive: -0.011 |
| AMMECR1 (UniProt Q9Y4X0) | inactive: 0.004 | active: -0.387 | inactive: 0.003 | inactive: -0.016 | inactive: 0 |
| ANKRD17 (UniProt O75179) | inactive: 0 | inactive: -0.112 | inactive: 0.026 | inactive: -0.001 | inactive: -0.021 |

| Target | log2 fold change [1] | log2 fold change (vorinostat) | log2 fold change (silmitasertib) | log2 fold change [2] | log2 fold change (entospletinib) |
| --- | --- | --- | --- | --- | --- |
| ALDOA (UniProt H3BPS8) | inactive: 0.024 | inactive: 0.212 | inactive: 0.077 |  | inactive: -0.069 |
| ANAPC5 (UniProt Q9UJX4) | inactive: 0.023 | inactive: -0.136 | inactive: 0.034 | inactive: 0.042 | inactive: 0.008 |
| AP4B1 (UniProt Q9Y6B7) | inactive: 0.08 | active: -0.286 | inactive: 0.037 | inactive: -0.051 | inactive: 0.022 |
| ANXA5 (UniProt P08758) | inactive: -0.008 | inactive: 0.056 | inactive: 0.021 | inactive: -0.017 | inactive: 0.006 |
| AP4E1 (UniProt Q9UPM8) | inactive: 0.011 | inactive: -0.09 | inactive: 0.055 | inactive: 0.013 | inactive: 0.03 |
| ANO6 (UniProt Q4KMQ2) | inactive: -0.009 | inactive: -0.118 | inactive: 0.027 | inactive: -0.001 | inactive: -0.004 |
| AP2M1 (UniProt Q96CW1) | inactive: 0.011 | inactive: 0.035 | inactive: -0.012 | inactive: 0.022 | inactive: 0.024 |
| ANAPC1 (UniProt Q9H1A4) | inactive: 0.008 | inactive: -0.145 | inactive: 0.01 | inactive: -0.004 | inactive: 0.015 |
| AP1S1 (UniProt P61966) | inactive: -0.063 | inactive: 0.067 | inactive: -0.002 | inactive: -0.024 | inactive: -0.015 |
| ALYREF (UniProt Q86V81) | inactive: 0.029 | inactive: 0.117 | inactive: 0.018 | inactive: 0.035 | inactive: 0.008 |
| ALDH1A2 (UniProt O94788) | inactive: -0.008 | inactive: 0.21 | inactive: 0.006 | inactive: -0.012 | inactive: -0.007 |
| ANKRD11 (UniProt Q6UB99) | inactive: 0 | inactive: 0.015 | inactive: 0.007 | inactive: -0.286 | inactive: 0.051 |
| ANKLE2 (UniProt Q86XL3) | inactive: 0.029 | inactive: -0.047 | inactive: -0.023 | inactive: -0.085 | inactive: -0.066 |
| AMD1 (UniProt P17707) | inactive: 0.071 | inactive: -0.076 | inactive: 0.062 | inactive: 0.499 | inactive: 0.211 |
| AP3M2 (UniProt P53677) | inactive: 0.042 | inactive: -0.014 | inactive: -0.084 |  | inactive: 0.033 |
| ALDH5A1 isoform 2 (UniProt P51649) | inactive: -0.02 | active: 0.371 | inactive: -0.005 | inactive: -0.057 | inactive: 0.003 |
| ANKRD28 (UniProt O15084) | inactive: -0.014 | inactive: -0.081 | inactive: 0.011 | inactive: 0.015 | inactive: 0.01 |
| ANKRD40 (UniProt Q6AI12) | active: 0.914 | inactive: -0.217 | inactive: -0.088 | inactive: 0.007 | inactive: -0.057 |
| ANGPTL4 (UniProt M0R3A2) | inactive: -0.08 | inactive: 0.053 | inactive: -0.147 |  | inactive: -0.12 |
| ANKRD13A (UniProt Q8IZ07) | inactive: 0.024 | inactive: -0.075 | inactive: 0.003 | inactive: -0.01 | inactive: 0 |
| ALAS1 (UniProt P13196) |  |  |  |  | inactive: 0.05 |

Record cards, as listed above:
AP2M1 (UniProt Q96CW1) as listed: log2 fold change [1]: inactive: 0.011; log2 fold change (vorinostat): inactive: 0.035; log2 fold change (silmitasertib): inactive: -0.012; log2 fold change [2]: inactive: 0.022; log2 fold change (entospletinib): inactive: 0.024
ANO6 (UniProt Q4KMQ2) as listed: log2 fold change [1]: inactive: -0.009; log2 fold change (vorinostat): inactive: -0.118; log2 fold change (silmitasertib): inactive: 0.027; log2 fold change [2]: inactive: -0.001; log2 fold change (entospletinib): inactive: -0.004
ALAS1 (UniProt P13196) as listed: log2 fold change (entospletinib): inactive: 0.05
